Test results from article PMC7494913.
These are yes or no findings as the source states them, for the method shown. In cells and extracts the contact can be indirect. Some binding calls cover weakened binding; strength is not graded here.

By UniProt entry, the sequences of proteins in these tests, tags left out.
UniProt P17676: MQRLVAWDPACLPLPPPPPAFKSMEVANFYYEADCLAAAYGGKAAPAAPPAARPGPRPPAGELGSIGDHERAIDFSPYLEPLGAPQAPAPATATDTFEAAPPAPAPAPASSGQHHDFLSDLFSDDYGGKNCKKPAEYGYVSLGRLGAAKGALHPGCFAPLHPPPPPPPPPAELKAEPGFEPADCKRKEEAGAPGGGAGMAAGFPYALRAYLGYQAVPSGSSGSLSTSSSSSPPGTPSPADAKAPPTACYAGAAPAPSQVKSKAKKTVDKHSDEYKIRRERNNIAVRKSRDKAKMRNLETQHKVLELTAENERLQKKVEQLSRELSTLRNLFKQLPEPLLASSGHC
UniProt Q13547: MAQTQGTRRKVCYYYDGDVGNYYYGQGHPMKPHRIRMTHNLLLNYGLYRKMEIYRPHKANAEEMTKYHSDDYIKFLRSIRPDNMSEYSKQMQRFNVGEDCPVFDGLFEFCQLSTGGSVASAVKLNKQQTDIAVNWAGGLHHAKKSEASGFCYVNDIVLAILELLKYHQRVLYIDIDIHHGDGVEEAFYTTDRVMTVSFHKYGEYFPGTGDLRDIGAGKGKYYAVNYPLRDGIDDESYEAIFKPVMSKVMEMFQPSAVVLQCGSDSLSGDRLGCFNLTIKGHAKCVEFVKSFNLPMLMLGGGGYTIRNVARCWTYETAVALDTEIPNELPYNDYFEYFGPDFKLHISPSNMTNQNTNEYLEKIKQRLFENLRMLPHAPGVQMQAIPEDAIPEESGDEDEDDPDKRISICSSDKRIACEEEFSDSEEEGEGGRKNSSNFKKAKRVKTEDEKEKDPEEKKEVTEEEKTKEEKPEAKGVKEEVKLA

Molecular target: CCAAT/enhancer-binding protein beta (human (endogenous in patient-derived GBM spheres)) (UniProt P17676)
Test: co-IP; lysate of core-like 267 (Fig. 8d) and core-like 1005 (Supplementary Fig. 8b) GBM spheres; precipitated with antibodies against C/EBPβ on magnetic beads (antibody overnight at 4 °C, beads 1 h at room temperature), low-pH elution, HDAC1 detected

binding: binds
Substance: HDAC1 (from UniProt Q13547 1-482)
